For two molecules, binding results are on record in article PMC9527062.

Protein sequences, listed by entry. Tags and fused reporters are not part of them. Lines headed by an entry give the natural chain unless they say otherwise; changes in a name come on top. Residues count along the entry.
UniProt Q6IA17: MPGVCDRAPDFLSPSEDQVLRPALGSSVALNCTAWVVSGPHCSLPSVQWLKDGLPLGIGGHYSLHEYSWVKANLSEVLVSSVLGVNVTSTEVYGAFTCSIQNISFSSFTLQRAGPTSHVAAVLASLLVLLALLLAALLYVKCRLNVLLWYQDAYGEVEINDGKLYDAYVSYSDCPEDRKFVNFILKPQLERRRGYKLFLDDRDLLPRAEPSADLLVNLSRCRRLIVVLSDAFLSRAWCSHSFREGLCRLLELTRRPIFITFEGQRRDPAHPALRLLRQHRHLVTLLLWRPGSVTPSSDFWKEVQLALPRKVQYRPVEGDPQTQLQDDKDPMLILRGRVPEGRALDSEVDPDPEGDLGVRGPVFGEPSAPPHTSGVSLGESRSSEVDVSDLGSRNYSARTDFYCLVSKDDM
UniProt P25705, residues 44-553: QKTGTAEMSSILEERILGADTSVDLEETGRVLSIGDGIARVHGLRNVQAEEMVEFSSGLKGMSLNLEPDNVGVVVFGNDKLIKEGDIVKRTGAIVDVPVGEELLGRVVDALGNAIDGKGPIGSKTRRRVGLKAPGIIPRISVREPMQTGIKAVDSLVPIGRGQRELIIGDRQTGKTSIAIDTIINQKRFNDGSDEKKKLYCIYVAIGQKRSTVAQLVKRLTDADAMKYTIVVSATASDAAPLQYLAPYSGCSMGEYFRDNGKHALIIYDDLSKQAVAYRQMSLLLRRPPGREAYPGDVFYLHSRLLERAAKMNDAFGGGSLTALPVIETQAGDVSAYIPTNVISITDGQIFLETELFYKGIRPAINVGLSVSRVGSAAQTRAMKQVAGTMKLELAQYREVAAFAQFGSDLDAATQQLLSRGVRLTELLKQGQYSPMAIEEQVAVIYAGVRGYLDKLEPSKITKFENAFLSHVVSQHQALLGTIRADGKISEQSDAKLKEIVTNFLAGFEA

For test [1], the target named is endogenous SIGIRR of HCT116 cells (predominantly SIGIRR^ΔE8) (human (endogenous in HCT116)) (UniProt Q6IA17). As to the kind of experiment: co-IP; endogenous SIGIRR immunoprecipitated from HCT116 and HT-29 cell lysates; Western blot for ATP5A1 and SIGIRR. (A western blot detects proteins with antibodies after separation by electrophoresis.)
Test [2] deals with M2 flag-tagged SIGIRR^ΔE8 (human). As to the kind of experiment: co-IP; HeLa cells cotransfected with the myc-tagged partner and M2 flag-tagged SIGIRR forms; lysates (0.5% Triton X-100, 50 mM Tris-HCl pH 7.4, 150 mM NaCl) immunoprecipitated with anti-FLAG antibody and protein A/G beads overnight at 4°C; Western blot.

No constants are given. Whether binding was seen depends on the method and setting. In cells and extracts the contact can be indirect. Binding calls can cover weak binding; strength is not graded here. For some assays here: Tags and fused reporters may be left off the sequences shown.

Turning to “alpha subunit of adenosine triphosphate (ATP) synthase (ATP5A1), endogenous (from UniProt P25705 44-553)”, in test [1], the binding entry was “binds”.

B1: myc-tagged ribophorin 1 (RPN1) (protein, UniProt P04843 24-607)
chain: ASSEAPPLINEDVKRTVDLSSHLAKVTAEVVLAHLGGGSTSRATSFLLALEPELEARLAHLGVQVKGEDEEENNLEVRETKIKGKSGRFFTVKLPVALDPGAKISVIVETVYTHVLHPYPTQITQSEKQFVVFEGNHYFYSPYPTKTQTMRVKLASRNVESYTKLGNPTRSEDLLDYGPFRDVPAYSQDTFKVHYENNSPFLTITSMTRVIEVSHWGNIAVEENVDLKHTGAVLKGPFSRYDYQRQPDSGISSIRSFKTILPAAAQDVYYRDEIGNVSTSHLLILDDSVEMEIRPRFPLFGGWKTHYIVGYNLPSYEYLYNLGDQYALKMRFVDHVFDEQVIDSLTVKIILPEGAKNIEIDSPYEISRAPDELHYTYLDTFGRPVIVAYKKNLVEQHIQDIVVHYTFNKVLMLQEPLLVVAAFYILFFTVIIYVRLDFSITKDPAAEARMKVACITEQVLTLVNKRIGLYRHFDETVNRYKQSRDISTLNSGKKSLETEHKALTSEIALLQSRLKTEGSDLCDRVSEMQKLDAQVKELVLKSAVEAERLVAGKLKKDTYIENEKLISGKRQELVTKIDHILDAL
As for B1, in test [2], the binding entry is “binds”.
